Assay results: PubChem BioAssay AID2685 (National Center for Advancing Translational Sciences (NCATS), 2010)
The list shows a part of the results. Shown are side measurements of this screen, not its main read-out; they come without a call. The list favours compounds with an active or inconclusive main result. Potencies come from curve fits of mixed quality, noted in brackets.

Assay: qHTS Assay for Lipid Storage Modulators in Drosophila S3 Cells;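 as to cell number change: cells counted by Cell Tracker Red CMTPX staining in the red channel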
Settings: BODIPY lipid droplet fluorescence, 18-24 h; for cell number change: measured here: cell count max response, cells fed with added oleic acid
In short: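 Drosophila S3 cells loaded with oleic acid (400 uM, as added) and compounds at several concentrations; lipid droplets imaged by 488-nm laser-scanning cytometry, 500–530 nm intensity and object ratio to cell channel. Percent activity normalized to 20 uM Triacsin C.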

[1] = measured here: lipid fluorescence (Fed channel) AC50, cells fed with added oleic acid
[2] = measured here: cell number channel AC50, cells fed with added oleic acid

Row | SMILES | cell number change [%] | AC50 [1] | AC50 [2]
1 | O=C(c1ccc(Cl)c(Cl)c1)N1CCC(=O)N(C(COCc2ccc(Cl)cc2)Cc2ccccc2)CC1 (stereo unspecified) | -8.07 | 9.2 µM [rising, partial curve] | 
2 | CC(=O)c1ccc(N2CCN(C(=O)Nc3ccc(C(C)C)cc3)CC2)cc1 | -40.8 | 1.64 µM [falling, partial curve] | 29.1 µM [falling, single point]
3 | COC(=O)CNC(c1ccccc1)c1cc(Br)ccc1NS(=O)(=O)c1ccccc1 (stereo unspecified) | 11.3 | 2.06 µM [rising, partial curve] | 
4 | Cc1ccc(C(=O)N(C)Cc2ccc(N3CCOCC3)cc2)cc1S(=O)(=O)NCc1ccccc1 | -11.7 | 0.00461 µM [falling, full curve, poor fit] | 
5 | COc1ccccc1-c1nnc(SCC(=O)NNC(=O)c2ccccc2F)n1C | 1.55 | 7.31 µM [rising, partial curve, poor fit] | 
6 | Nc1nnc(SCC(=O)Nc2ccccc2N2CCOCC2)s1 | -71.7 | 16.4 µM [falling, partial curve, poor fit] | 9.2 µM [falling, partial curve]
7 | COC(=O)c1ccc(C(=O)OC)c(NC(=O)CS(=O)(=O)Cc2ccccc2)c1 | -13.4 | 23.1 µM [rising, partial curve, poor fit] | 
8 | O=C(CSc1cc(Cl)ccc1Cl)NC1CC1 | -3.74 | 16.4 µM [rising, partial curve] | 
9 | COc1ccccc1/C=C/CN1CCSCC1 | 14.5 | 3.66 µM [rising, partial curve] | 
10 | Cn1c2ccccc2c2cnn(CC(=O)NCCCN3CCN(c4ccccc4F)CC3)c(=O)c21 | 5.19 |  | 
11 | COc1cccc(/C=N/Nc2nc(-c3cccnc3)nc3ccccc23)c1 | 5.98 | 0.461 µM [rising, single point] | 
12 | Cc1ccccc1NC(=O)c1c(-c2ccccc2)noc1C | -43.7 |  | 14.6 µM [falling, partial curve, poor fit]
13 | CNc1ccc(Br)cc(C(=O)/C=C/c2cccc(OC)c2OC)c1=O | -20.8 | 20.6 µM [falling, partial curve] | 
14 | CCN(CC)c1ccc(/C=N/NC(=S)NCc2ccco2)cc1 |  | 3.66 µM [rising, single point] | 
15 | COc1ccc(NC2CCCN(C(=O)CCc3ccccc3F)C2)cc1 (stereo unspecified) | -6.12 | 0.731 µM [rising, full curve] | 
16 | Cc1cc(=O)oc2c(C)c(OCC(=O)N3CC[C@@]4(O)CCCC[C@H]4C3)ccc12 |  | 20.6 µM [falling, partial curve] | 

Reprinted at random: two entries already listed
Row | SMILES | cell number change [%] | AC50 [1] | AC50 [2]
7 | COC(=O)c1ccc(C(=O)OC)c(NC(=O)CS(=O)(=O)Cc2ccccc2)c1 | -13.4 | 23.1 µM [rising, partial curve, poor fit] | 
4 | Cc1ccc(C(=O)N(C)Cc2ccc(N3CCOCC3)cc2)cc1S(=O)(=O)NCc1ccccc1 | -11.7 | 0.00461 µM [falling, full curve, poor fit] | 
